According to the supplement of paper PMC10849652:
The list shows a part of the results.

Sequences of proteins named here, by UniProt entry; tags and fusion partners are left off. A change or cut given only in a name is not applied to a line headed by its entry.
UniProt P11169: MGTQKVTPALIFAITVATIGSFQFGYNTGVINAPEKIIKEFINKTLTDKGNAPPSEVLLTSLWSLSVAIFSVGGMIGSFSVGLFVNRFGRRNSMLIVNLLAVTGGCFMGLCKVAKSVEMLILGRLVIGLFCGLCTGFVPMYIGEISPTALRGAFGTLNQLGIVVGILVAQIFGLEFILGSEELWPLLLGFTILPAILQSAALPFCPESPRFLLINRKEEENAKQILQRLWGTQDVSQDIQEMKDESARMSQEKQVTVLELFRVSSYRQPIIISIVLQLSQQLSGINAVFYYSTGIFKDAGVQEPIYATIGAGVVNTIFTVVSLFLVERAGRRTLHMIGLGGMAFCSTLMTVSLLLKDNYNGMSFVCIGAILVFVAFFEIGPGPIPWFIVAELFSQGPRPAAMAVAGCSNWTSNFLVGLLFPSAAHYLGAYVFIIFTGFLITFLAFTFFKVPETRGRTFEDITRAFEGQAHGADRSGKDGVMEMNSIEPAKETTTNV
UniProt Q9Y619: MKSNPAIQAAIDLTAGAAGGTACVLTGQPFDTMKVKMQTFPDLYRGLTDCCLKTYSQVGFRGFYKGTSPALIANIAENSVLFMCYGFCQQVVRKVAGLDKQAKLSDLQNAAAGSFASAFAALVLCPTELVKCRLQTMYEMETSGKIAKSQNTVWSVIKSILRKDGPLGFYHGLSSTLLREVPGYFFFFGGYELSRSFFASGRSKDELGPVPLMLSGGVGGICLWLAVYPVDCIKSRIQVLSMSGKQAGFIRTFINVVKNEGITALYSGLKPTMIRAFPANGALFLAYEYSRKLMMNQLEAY
UniProt Q9Y289: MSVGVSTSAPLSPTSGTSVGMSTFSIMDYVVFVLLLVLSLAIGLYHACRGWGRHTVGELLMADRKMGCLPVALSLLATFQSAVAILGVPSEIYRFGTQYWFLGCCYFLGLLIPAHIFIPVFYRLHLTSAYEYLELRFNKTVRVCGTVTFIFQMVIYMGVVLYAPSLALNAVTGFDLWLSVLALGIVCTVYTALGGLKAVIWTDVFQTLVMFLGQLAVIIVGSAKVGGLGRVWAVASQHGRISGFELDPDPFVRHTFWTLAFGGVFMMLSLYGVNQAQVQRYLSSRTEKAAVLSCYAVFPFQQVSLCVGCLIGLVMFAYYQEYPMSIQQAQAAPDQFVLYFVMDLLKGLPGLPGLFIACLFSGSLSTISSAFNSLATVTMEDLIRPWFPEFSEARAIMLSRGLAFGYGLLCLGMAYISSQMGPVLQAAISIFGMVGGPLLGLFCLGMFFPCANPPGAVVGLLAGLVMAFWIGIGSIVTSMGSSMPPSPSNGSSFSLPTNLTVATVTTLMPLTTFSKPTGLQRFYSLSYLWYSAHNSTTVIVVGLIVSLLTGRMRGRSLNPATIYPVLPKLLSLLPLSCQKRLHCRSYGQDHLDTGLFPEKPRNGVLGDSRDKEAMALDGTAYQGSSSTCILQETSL
UniProt P48029: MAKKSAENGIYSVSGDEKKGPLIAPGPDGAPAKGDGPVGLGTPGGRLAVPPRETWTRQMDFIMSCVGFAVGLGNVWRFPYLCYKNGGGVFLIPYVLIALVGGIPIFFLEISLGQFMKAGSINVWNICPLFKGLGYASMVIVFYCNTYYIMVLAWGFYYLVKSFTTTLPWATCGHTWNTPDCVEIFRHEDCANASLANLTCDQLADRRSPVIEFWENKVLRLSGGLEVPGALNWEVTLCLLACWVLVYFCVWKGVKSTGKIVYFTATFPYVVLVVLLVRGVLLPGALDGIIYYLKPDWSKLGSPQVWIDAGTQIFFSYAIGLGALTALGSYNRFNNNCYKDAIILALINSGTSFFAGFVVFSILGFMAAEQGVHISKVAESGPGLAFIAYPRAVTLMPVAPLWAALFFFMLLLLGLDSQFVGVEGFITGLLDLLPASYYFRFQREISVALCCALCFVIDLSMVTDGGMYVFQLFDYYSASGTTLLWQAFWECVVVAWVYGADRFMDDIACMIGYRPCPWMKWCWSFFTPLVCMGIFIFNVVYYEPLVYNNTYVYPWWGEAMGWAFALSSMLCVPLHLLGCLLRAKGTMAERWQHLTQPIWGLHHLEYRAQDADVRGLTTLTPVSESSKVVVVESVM
UniProt Q9ULF5: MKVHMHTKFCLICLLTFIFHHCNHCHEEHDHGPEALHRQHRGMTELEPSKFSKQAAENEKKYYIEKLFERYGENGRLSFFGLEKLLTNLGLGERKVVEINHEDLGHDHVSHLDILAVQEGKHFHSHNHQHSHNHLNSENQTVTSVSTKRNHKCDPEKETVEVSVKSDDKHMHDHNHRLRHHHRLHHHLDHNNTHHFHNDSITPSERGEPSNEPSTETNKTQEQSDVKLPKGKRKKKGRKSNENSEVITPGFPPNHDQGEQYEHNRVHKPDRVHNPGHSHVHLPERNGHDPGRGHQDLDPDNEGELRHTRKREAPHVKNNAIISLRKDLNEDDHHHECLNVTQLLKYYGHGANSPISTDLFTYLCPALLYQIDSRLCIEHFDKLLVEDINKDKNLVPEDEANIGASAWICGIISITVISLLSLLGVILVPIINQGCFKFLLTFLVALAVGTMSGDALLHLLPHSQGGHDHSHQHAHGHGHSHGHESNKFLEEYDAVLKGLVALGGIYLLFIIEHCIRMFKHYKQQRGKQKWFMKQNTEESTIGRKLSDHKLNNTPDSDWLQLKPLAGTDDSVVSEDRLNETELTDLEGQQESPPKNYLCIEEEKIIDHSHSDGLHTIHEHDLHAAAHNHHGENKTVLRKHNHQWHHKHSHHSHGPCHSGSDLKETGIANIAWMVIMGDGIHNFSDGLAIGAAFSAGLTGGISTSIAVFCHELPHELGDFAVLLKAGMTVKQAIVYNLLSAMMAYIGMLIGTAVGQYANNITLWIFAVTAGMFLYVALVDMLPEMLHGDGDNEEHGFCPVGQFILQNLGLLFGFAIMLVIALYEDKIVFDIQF
UniProt Q96AG3: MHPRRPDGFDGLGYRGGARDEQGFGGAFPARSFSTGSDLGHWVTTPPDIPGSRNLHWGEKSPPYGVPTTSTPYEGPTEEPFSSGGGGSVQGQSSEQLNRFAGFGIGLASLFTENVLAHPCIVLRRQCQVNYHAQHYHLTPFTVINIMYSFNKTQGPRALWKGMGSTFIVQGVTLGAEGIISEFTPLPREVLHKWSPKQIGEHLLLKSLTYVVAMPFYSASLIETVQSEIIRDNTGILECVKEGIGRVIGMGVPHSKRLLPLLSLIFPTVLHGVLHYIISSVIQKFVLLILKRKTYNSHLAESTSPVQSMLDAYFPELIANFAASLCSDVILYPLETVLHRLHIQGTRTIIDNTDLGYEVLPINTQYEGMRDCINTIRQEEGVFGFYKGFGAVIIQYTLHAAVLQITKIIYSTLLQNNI
UniProt Q9UJS0: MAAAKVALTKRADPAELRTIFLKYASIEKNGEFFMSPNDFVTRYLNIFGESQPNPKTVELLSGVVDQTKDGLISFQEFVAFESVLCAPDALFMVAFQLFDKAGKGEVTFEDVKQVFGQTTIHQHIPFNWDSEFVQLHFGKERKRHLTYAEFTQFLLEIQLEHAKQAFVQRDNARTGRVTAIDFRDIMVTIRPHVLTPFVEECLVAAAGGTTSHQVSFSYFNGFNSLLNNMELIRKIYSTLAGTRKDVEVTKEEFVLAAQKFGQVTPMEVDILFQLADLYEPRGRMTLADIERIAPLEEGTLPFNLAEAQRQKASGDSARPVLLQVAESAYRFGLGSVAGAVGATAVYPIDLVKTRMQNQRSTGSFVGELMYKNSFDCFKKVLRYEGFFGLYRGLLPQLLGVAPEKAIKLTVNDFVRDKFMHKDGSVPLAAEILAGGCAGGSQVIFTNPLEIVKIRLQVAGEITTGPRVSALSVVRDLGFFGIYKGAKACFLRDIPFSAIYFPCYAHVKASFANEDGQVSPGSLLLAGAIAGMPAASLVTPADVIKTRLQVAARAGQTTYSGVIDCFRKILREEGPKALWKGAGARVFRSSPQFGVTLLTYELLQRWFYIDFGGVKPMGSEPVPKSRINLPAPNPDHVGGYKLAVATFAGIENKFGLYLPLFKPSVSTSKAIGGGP
UniProt P16260: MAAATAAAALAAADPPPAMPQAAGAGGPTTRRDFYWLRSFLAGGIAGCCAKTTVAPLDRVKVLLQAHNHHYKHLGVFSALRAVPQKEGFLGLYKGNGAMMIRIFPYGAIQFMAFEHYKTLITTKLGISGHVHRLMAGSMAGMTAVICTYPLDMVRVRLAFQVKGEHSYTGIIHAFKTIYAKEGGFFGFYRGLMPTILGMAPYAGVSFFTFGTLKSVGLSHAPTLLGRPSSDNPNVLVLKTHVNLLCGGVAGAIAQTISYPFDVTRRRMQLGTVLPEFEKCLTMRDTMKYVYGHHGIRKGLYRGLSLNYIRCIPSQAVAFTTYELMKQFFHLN
UniProt Q9H2D1: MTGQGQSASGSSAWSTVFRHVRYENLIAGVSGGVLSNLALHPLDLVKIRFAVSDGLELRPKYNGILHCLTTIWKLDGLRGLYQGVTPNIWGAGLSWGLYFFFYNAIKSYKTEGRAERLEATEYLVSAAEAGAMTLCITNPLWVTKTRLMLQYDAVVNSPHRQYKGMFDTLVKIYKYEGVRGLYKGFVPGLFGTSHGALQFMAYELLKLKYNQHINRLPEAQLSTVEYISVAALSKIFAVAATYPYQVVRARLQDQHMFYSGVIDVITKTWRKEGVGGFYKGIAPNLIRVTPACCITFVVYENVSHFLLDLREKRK
UniProt Q02978: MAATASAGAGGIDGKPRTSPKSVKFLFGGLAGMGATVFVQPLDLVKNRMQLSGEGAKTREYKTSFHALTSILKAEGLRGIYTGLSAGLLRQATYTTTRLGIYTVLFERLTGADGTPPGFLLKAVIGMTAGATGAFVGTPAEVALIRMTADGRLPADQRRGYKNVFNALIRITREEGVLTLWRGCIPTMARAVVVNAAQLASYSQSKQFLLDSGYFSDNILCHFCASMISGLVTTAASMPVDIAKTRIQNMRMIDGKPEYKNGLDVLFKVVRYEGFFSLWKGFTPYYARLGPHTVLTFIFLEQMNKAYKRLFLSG
UniProt P53985: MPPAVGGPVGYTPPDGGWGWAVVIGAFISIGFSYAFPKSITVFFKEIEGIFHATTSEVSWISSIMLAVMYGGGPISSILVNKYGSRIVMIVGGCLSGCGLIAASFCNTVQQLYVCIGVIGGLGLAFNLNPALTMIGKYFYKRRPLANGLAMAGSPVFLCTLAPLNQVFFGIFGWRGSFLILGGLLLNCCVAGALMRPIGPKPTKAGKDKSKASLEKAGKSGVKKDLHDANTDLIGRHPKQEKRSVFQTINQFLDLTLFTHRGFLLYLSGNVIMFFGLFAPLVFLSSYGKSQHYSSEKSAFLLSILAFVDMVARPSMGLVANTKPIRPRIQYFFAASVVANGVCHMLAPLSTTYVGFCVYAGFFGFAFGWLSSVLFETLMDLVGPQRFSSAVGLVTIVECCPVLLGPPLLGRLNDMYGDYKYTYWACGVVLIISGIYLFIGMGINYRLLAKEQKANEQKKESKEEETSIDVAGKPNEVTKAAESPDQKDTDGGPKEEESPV
UniProt Q9BRY0: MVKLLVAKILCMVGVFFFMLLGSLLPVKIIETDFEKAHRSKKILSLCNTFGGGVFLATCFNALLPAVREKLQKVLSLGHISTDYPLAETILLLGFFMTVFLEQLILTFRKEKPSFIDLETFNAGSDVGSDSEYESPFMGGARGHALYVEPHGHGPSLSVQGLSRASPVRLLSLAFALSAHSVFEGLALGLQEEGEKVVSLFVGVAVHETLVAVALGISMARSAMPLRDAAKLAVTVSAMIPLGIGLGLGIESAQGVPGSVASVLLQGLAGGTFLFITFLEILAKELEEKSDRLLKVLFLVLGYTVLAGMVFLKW
UniProt Q9BSK2: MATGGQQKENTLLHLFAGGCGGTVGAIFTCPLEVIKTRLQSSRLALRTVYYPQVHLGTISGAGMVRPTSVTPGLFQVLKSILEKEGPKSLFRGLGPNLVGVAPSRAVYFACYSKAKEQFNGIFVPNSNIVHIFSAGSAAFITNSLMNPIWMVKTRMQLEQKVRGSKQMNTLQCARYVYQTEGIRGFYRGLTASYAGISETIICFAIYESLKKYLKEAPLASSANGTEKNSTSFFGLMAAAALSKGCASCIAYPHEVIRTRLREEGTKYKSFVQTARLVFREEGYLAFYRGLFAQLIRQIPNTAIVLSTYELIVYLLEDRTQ
UniProt P78381: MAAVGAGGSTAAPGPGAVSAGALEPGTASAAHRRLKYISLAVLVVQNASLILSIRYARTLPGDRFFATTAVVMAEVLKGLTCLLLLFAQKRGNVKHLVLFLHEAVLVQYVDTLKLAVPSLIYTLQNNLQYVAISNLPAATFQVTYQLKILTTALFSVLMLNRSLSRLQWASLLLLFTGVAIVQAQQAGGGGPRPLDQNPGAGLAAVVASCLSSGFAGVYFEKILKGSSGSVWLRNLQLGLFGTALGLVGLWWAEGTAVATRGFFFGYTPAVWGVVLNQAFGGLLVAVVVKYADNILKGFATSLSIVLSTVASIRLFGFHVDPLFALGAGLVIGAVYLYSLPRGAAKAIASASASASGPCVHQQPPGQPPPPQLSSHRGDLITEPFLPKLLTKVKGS

How the values were obtained:
Assay in all cases: log2 fold change, soluble protein after heating vs DMSO (PISA); higher = thermal stabilisation; K562 cells, 10 uM, 30 min; active = over 0.2 and 3.5 SD of the protein, either way, in both replicates (recomputed)
[1] = compound: CN1CCN(CCOc2cc(OC3CCOCC3)c3c(Nc4c(Cl)ccc5c4OCO5)ncnc3c2)CC1 [saracatinib]
Outline: (§1)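 K562 cells at 2×10^6 cells/mL were given 10 μM compound for 30 min. Aliquots then went through 3 min of heating across 48°C-58°C, were pooled, and were extracted in PBS with 0.5% NP-40 at 4°C, and the supernatant after 21,000xg for 90 min was quantified by TMTpro 16plex LC-MS/MS with channel sums equalised. Thermal stability relative to control samples, from duplicates, is given as log2 fold change.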

[2] = compound: CN1CCN(c2nc(C3=C(c4c[nH]c5ccccc45)C(=O)NC3=O)c3ccccc3n2)CC1 [sotrastaurin]
Outline: as §1

[3] = compound: CN1CC[C@H](c2c(O)cc(O)c3c(=O)cc(-c4ccccc4Cl)oc23)[C@H](O)C1 [alvocidib]
Outline: as §1

[4] = compound: CN1CCc2c(c3ccccc3n2Cc2ccc(C(=O)NO)cc2)C1 [Tubastatin A]
Outline: as §1

[5] = compound: CNC(=O)C1=CC=CC=C1NC2=NC(=NC=C2Cl)NC3=C(C=C(C=C3)N4CCOCC4)OC
Outline: as §1

[6] = compound: CNC(=O)c1ccc(Nc2ncc(C(F)(F)F)c(NCc3nccnc3N(C)S(C)(=O)=O)n2)cc1 [defactinib]
Outline: as §1

[7] = compound: CNCc1ccc(-c2[nH]c3cc(F)cc4c3c2CCNC4=O)cc1 [rucaparib]
Outline: as §1

[8] = compound: CNc1nc(-c2ccc3c(N)n[nH]c3c2)cc(N2C[C@@H](C(=O)NC3CCCCC3)CC[C@H]2C)n1
Outline: as §1

[9] = compound: COC(=O)N[C@@H](C)CNc1nccc(-c2cn(C(C)C)nc2-c2cc(Cl)cc(NS(C)(=O)=O)c2F)n1 [encorafenib]
Outline: as §1

[10] = compound: COC(=O)[C@H](CCSC)NC(=O)C1=C(C=C(C=C1)NC[C@H](CS)N)C2=CC=CC=C2
Outline: as §1

[11] = compound: COC1=CC=C(C=C1)CN2C=CC3=C2C=C(C=C3)C(=O)NO
Outline: as §1

[12] = compound: CON(C)C(=O)N1N=C(c2cc(F)ccc2F)S[C@@]1(CCCN)c1ccccc1 [filanesib]
Outline: as §1

[13] = compound: CO[C@H]1C[C@@H]2CC[C@@H](C)[C@@](O)(O2)C(=O)C(=O)N2CCCC[C@H]2C(=O)O[C@H]([C@H](C)C[C@@H]2CC[C@H](n3cnnn3)[C@H](OC)C2)CC(=O)[C@H](C)/C=C(\C)[C@@H](O)[C@@H](OC)C(=O)[C@H](C)C[C@H](C)/C=C/C=C/C=C/1C [zotarolimus]
Outline: as §1

[14] = compound: COc1cc(C(=O)O)ccc1NC(=O)[C@@H]1N[C@@H](CC(C)(C)C)[C@](C#N)(c2ccc(Cl)cc2F)[C@H]1c1cccc(Cl)c1F [idasanutlin]
Outline: as §1

[15] = compound: COc1cc(Nc2ncc3c(n2)-c2ccc(Cl)cc2C(c2c(F)cccc2OC)=NC3)ccc1C(=O)O [alisertib]
Outline: as §1

[16] = compound: COc1cc2nc(-c3cc(F)ccc3O)nc(N[C@@H]3CNC[C@H]3C(C)(C)O)c2cc1OC
Outline: as §1

[17] = compound: COc1cc2ncnc(Nc3ccc(F)c(Cl)c3)c2cc1OCCCN1CCOCC1 [gefitinib]
Outline: as §1

[18] = compound: COc1cccc2cc(-c3nc([C@H]4CC[C@H](C(=O)O)CC4)n4ncnc(N)c34)[nH]c12
Outline: as §1

[19] = compound: CS(=O)(=O)CCNCc1ccc(-c2ccc3ncnc(Nc4ccc(OCc5cccc(F)c5)c(Cl)c4)c3c2)o1 [lapatinib]
Outline: as §1

[20] = compound: CS(=O)(=O)N1CCN(Cc2cc3nc(-c4cccc5[nH]ncc45)nc(N4CCOCC4)c3s2)CC1 [pictilisib]
Outline: as §1

Measured: log2 fold change

SLC2A3 (UniProt P11169)
inactive: [1] 0.041 | [2] 0.023 | [3] -0.042 | [4] -0.001 | [5] -0.051 | [6] -0.046 | [7] -0.055 | [8] -0.007 | [9] 0.014 | [10] 0.018 | [11] 0.02 | [12] -0.023 | [13] -0.057 | [14] 0.013 | [15] -0.037 | [16] -0.025 | [17] -0.005 | [18] 0.07 | [19] -0.005 | [20] 0.051

SLC25A15 (UniProt Q9Y619)
inactive: [1] 0.045 | [2] 0.049 | [3] -0.01 | [4] -0.024 | [5] 0.001 | [6] -0.046 | [7] -0.129 | [8] -0.018 | [9] 0.077 | [10] 0.023 | [11] -0.075 | [12] -0.041 | [13] -0.009 | [14] 0.001 | [15] -0.013 | [16] -0.026 | [17] 0.009 | [18] 0.045 | [19] 0.063 | [20] 0.004

SLC5A6 (UniProt Q9Y289)
inactive: [1] 0.058 | [2] 0.048 | [3] -0.005 | [4] 0.009 | [5] -0.035 | [6] -0.038 | [7] 0.029 | [8] 0.042 | [9] 0.035 | [10] 0.028 | [11] -0.007 | [12] 0.085 | [13] 0.061 | [14] -0.013 | [15] 0.008 | [16] -0.004 | [17] 0.008 | [18] 0.028 | [19] -0.044 | [20] 0.087

SLC6A8 (UniProt P48029)
inactive: [1] 0.131 | [2] 0.055 | [3] -0.079 | [4] -0.056 | [5] -0.085 | [6] 0.014 | [7] -0.048 | [8] -0.02 | [9] 0.027 | [10] 0.127 | [11] 0.067 | [12] -0.063 | [13] -0.121 | [14] -0.017 | [15] 0.047 | [16] 0.197 | [17] -0.102 | [18] -0.113 | [19] -0.016 | [20] 0.115

SLC39A10 (UniProt Q9ULF5)
inactive: [1] 0.065 | [2] 0.074 | [3] -0.021 | [4] -0.022 | [5] -0.1 | [6] -0.005 | [7] -0.034 | [8] 0.041 | [9] -0.009 | [10] 0.038 | [11] -0.102 | [12] 0.094 | [13] -0.012 | [14] 0.03 | [15] -0.064 | [16] -0.021 | [17] 0.107 | [18] 0.015 | [19] -0.015 | [20] 0.02

SLC25A46 (UniProt Q96AG3)
inactive: [1] 0.184 | [2] 0.094 | [3] 0.026 | [4] 0.081 | [5] -0.026 | [6] 0.002 | [7] 0.062 | [8] -0.053 | [9] -0.018 | [10] 0.016 | [11] -0.037 | [12] 0.046 | [13] -0.021 | [14] -0.033 | [15] 0.068 | [16] 0.131 | [17] 0.055 | [18] 0.013 | [19] 0.042 | [20] -0.064

SLC25A13 isoform 2 (UniProt Q9UJS0)
inactive: [1] 0.018 | [2] 0.046 | [3] -0.002 | [4] -0.004 | [5] -0.008 | [6] -0.012 | [7] 0.007 | [8] -0.016 | [9] -0.014 | [10] 0.018 | [11] -0.038 | [12] -0.049 | [13] -0.013 | [14] -0.029 | [15] -0.036 | [16] 0.013 | [17] 0.001 | [18] 0.057 | [19] -0.016 | [20] -0.027

SLC25A16 (UniProt P16260)
inactive: [1] 0.071 | [2] 0.082 | [3] -0.116 | [4] 0.092 | [5] -0.082 | [6] 0 | [7] 0.06 | [8] -0.041 | [9] 0.009 | [10] 0.053 | [11] 0.04 | [12] 0.054 | [13] -0.012 | [14] 0.05 | [15] -0.164 | [16] -0.055 | [17] -0.036 | [18] -0.053 | [19] 0.001 | [20] -0.323

SLC25A32 (UniProt Q9H2D1)
inactive: [1] 0.09 | [2] 0.021 | [3] 0.019 | [4] -0.017 | [5] -0.017 | [6] -0.009 | [7] -0.052 | [8] -0.029 | [9] 0.039 | [10] 0.027 | [11] -0.066 | [12] -0.005 | [13] -0.069 | [14] -0.052 | [15] -0.016 | [16] 0.026 | [17] 0.02 | [18] 0.088 | [19] -0.015 | [20] 0.018

3 consecutive records already listed, for reference:
SLC6A8 (UniProt P48029)
inactive: [1] 0.131 | [2] 0.055 | [3] -0.079 | [4] -0.056 | [5] -0.085 | [6] 0.014 | [7] -0.048 | [8] -0.02 | [9] 0.027 | [10] 0.127 | [11] 0.067 | [12] -0.063 | [13] -0.121 | [14] -0.017 | [15] 0.047 | [16] 0.197 | [17] -0.102 | [18] -0.113 | [19] -0.016 | [20] 0.115

SLC39A10 (UniProt Q9ULF5)
inactive: [1] 0.065 | [2] 0.074 | [3] -0.021 | [4] -0.022 | [5] -0.1 | [6] -0.005 | [7] -0.034 | [8] 0.041 | [9] -0.009 | [10] 0.038 | [11] -0.102 | [12] 0.094 | [13] -0.012 | [14] 0.03 | [15] -0.064 | [16] -0.021 | [17] 0.107 | [18] 0.015 | [19] -0.015 | [20] 0.02

SLC25A46 (UniProt Q96AG3)
inactive: [1] 0.184 | [2] 0.094 | [3] 0.026 | [4] 0.081 | [5] -0.026 | [6] 0.002 | [7] 0.062 | [8] -0.053 | [9] -0.018 | [10] 0.016 | [11] -0.037 | [12] 0.046 | [13] -0.021 | [14] -0.033 | [15] 0.068 | [16] 0.131 | [17] 0.055 | [18] 0.013 | [19] 0.042 | [20] -0.064

Next part:

SLC25A11 (UniProt Q02978)
inactive: [1] 0.057 | [2] 0.043 | [3] 0.011 | [4] -0.015 | [5] -0.003 | [6] 0.011 | [7] 0 | [8] -0.042 | [9] 0.004 | [10] -0.002 | [11] -0.003 | [12] -0.055 | [13] -0.021 | [14] -0.003 | [15] -0.095 | [16] 0.024 | [17] 0.043 | [18] 0.05 | [19] 0.045 | [20] -0.017

SLC16A1 (UniProt P53985)
inactive: [1] -0.003 | [2] 0.094 | [3] 0.032 | [4] 0.005 | [5] -0.027 | [6] -0.025 | [7] -0.146 | [8] 0.034 | [9] 0.003 | [10] 0.035 | [11] -0.074 | [12] 0.064 | [13] -0.031 | [14] 0 | [15] -0.05 | [16] 0.064 | [17] 0.028 | [18] 0.146 | [19] -0.046 | [20] -0.009

SLC39A3 (UniProt Q9BRY0)
inactive: [1] 0.018 | [2] -0.003 | [3] 0.015 | [4] -0.035 | [5] 0.108 | [6] -0.054 | [7] -0.088 | [8] -0.083 | [9] 0.018 | [10] 0.019 | [12] -0.115 | [13] -0.152 | [14] -0.04 | [15] 0.055 | [16] 0.027 | [17] 0.001 | [18] 0.06 | [19] -0.2 | [20] 0.069

SLC20A2 (UniProt Q08357)
inactive: [1] 0.01 | [2] 0.08 | [3] -0.019 | [4] -0.095 | [5] 0.059 | [6] -0.099 | [7] -0.037 | [8] -0.051 | [9] 0.008 | [10] -0.033 | [11] -0.016 | [12] 0.003 | [13] -0.017 | [14] -0.032 | [15] 0.09 | [16] 0.027 | [17] 0.009 | [18] 0.079 | [19] -0.011 | [20] 0.135

SLC25A33 (UniProt Q9BSK2)
inactive: [1] 0.065 | [2] 0.044 | [3] 0 | [4] -0.039 | [5] -0.036 | [6] -0.019 | [7] -0.02 | [8] -0.022 | [9] 0.006 | [10] 0.01 | [11] 0.019 | [12] -0.041 | [13] -0.027 | [14] -0.082 | [15] -0.086 | [16] -0.048 | [17] -0.049 | [18] 0.134 | [19] 0.036 | [20] -0.03

SLC35A2 isoform 4 (UniProt P78381)
inactive: [1] 0.03 | [2] 0.053 | [3] -0.052 | [4] -0.104 | [6] -0.168 | [7] 0.05 | [8] -0.255 | [9] 0.061 | [10] 0.108 | [11] -0.012 | [12] -0.017 | [13] 0.005 | [14] -0.227 | [15] 0.061 | [16] -0.019 | [17] 0.014 | [18] 0.002 | [19] -0.048 | [20] 0.08

SLC38A2 (UniProt Q96QD8)
inactive: [1] -0.007 | [2] 0.027 | [4] -0.043 | [5] 0.004 | [6] -0.034 | [7] -0.044 | [8] -0.188 | [9] 0.045 | [10] -0.024 | [11] -0.041 | [12] -0.205 | [13] 0.048 | [14] 0.011 | [15] -0.019 | [16] -0.122 | [17] -0.099 | [18] 0.097 | [19] -0.055
